Results taken from the supplement of paper PMC10849652.
The other results are listed elsewhere or left out.

By UniProt entry, the sequences of proteins in these tests, tags left out. Where a name states a change or a piece, a line headed by the entry shows the natural chain unless it says otherwise.
UniProt P27695, whole entry, looked up: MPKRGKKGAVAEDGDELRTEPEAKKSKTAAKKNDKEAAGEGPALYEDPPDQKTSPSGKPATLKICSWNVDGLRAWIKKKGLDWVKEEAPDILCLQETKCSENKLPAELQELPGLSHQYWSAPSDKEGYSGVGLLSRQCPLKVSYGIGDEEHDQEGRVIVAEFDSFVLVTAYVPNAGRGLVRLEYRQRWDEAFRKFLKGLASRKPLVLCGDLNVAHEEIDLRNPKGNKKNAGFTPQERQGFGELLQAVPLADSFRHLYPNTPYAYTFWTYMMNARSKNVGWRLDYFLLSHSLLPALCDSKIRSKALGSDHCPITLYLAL
UniProt Q9HC16: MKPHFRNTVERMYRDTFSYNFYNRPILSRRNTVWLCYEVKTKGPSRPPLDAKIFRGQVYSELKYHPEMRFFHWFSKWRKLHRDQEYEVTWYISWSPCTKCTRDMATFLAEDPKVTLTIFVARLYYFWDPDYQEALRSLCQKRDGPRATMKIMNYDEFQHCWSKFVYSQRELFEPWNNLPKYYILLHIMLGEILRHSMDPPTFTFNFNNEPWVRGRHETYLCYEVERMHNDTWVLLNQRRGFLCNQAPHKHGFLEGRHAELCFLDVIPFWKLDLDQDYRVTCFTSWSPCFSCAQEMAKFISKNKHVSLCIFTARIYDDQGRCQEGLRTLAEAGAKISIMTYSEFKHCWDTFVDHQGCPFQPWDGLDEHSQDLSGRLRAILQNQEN
UniProt Q8N5I2: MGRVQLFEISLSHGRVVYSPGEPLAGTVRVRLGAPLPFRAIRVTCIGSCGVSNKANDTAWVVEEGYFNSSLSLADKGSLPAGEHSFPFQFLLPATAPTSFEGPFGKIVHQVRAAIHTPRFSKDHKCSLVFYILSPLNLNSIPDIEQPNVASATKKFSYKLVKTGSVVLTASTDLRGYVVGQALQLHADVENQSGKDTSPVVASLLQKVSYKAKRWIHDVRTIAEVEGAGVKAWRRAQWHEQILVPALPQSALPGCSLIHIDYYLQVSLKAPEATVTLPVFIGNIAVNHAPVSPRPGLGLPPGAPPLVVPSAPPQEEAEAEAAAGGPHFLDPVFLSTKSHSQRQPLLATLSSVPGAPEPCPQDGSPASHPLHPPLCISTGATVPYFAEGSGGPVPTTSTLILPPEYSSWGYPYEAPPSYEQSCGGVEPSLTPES
UniProt Q96BM9: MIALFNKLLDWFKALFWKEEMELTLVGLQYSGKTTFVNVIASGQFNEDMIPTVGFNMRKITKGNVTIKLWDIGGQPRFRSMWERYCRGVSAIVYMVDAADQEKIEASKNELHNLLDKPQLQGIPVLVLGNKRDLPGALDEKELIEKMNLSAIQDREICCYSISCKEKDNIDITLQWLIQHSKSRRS
UniProt P48444: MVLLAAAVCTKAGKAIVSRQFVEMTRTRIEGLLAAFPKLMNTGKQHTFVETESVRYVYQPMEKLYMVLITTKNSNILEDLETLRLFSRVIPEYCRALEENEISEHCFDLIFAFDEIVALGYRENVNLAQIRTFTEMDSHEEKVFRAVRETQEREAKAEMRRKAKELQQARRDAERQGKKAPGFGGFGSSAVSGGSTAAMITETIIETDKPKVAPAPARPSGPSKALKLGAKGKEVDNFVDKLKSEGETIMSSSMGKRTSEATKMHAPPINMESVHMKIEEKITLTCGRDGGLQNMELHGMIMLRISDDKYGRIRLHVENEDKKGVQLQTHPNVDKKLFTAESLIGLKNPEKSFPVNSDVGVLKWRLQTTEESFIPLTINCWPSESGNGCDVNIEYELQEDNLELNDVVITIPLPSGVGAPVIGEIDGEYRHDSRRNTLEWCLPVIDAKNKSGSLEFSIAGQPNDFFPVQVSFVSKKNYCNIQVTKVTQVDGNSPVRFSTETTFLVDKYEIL
UniProt Q8N392: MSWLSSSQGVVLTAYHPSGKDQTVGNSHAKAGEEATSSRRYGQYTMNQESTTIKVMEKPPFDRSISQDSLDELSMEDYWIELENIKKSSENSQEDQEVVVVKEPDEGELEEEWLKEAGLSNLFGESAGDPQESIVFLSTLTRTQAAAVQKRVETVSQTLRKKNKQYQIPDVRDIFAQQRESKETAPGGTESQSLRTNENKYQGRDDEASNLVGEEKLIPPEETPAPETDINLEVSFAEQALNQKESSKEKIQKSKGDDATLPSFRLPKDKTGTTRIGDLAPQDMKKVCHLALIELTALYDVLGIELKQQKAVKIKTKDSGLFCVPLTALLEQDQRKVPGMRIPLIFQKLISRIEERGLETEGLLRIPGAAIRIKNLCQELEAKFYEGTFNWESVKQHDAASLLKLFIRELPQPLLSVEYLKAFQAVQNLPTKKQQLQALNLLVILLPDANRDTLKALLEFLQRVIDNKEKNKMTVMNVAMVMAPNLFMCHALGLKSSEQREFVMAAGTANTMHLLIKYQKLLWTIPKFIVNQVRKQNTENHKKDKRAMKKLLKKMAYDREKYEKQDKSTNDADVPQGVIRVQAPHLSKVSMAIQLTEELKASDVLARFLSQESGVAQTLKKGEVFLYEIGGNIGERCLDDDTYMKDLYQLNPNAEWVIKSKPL
UniProt P52565: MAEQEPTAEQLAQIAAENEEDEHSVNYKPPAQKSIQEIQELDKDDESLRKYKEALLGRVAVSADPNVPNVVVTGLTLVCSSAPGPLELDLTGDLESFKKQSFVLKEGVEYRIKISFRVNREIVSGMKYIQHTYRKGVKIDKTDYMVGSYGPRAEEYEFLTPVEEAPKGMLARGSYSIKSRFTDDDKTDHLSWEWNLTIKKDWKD
UniProt Q92747, whole entry, looked up: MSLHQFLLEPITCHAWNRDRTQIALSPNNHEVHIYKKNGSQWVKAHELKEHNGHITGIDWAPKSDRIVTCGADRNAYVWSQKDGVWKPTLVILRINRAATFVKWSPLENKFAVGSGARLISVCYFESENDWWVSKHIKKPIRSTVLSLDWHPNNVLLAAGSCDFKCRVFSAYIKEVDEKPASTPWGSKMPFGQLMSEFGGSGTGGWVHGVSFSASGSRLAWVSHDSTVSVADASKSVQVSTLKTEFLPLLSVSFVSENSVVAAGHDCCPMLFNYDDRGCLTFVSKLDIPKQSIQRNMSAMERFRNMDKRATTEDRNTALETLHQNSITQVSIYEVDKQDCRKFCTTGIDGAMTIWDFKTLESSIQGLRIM
UniProt Q96AK3: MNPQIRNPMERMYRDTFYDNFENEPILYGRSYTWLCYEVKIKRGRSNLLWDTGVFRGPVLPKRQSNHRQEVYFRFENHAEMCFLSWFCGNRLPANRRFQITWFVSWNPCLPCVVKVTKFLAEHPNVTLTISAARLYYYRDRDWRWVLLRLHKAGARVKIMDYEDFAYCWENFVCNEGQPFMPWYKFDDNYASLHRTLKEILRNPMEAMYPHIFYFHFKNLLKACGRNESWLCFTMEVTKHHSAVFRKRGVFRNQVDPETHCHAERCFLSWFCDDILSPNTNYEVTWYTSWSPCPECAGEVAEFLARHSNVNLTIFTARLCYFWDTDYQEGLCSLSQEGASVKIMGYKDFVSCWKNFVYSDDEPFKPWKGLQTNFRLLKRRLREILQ
UniProt Q8TDY4: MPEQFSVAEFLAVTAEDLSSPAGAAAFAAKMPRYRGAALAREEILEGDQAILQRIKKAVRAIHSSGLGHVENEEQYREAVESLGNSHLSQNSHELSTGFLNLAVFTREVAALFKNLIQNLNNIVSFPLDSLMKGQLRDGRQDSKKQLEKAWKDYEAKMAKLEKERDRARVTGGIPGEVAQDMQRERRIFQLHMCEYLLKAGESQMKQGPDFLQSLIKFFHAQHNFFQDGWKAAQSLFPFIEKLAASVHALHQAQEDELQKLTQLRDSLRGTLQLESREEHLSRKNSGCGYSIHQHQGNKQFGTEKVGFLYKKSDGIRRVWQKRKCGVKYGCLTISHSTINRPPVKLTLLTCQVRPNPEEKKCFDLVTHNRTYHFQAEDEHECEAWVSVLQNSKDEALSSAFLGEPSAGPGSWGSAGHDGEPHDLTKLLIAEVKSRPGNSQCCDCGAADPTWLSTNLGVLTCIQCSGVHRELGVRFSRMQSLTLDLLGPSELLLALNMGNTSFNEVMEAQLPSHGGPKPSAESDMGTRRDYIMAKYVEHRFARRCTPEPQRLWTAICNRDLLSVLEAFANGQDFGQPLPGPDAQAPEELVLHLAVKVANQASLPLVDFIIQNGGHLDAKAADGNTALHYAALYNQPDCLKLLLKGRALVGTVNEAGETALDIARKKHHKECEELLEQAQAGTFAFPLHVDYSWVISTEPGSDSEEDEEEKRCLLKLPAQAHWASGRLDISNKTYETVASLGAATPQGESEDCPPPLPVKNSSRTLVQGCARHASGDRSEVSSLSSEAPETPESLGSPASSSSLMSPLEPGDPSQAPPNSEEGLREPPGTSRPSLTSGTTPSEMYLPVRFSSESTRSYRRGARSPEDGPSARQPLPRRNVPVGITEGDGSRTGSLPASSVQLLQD
UniProt Q6NXE6: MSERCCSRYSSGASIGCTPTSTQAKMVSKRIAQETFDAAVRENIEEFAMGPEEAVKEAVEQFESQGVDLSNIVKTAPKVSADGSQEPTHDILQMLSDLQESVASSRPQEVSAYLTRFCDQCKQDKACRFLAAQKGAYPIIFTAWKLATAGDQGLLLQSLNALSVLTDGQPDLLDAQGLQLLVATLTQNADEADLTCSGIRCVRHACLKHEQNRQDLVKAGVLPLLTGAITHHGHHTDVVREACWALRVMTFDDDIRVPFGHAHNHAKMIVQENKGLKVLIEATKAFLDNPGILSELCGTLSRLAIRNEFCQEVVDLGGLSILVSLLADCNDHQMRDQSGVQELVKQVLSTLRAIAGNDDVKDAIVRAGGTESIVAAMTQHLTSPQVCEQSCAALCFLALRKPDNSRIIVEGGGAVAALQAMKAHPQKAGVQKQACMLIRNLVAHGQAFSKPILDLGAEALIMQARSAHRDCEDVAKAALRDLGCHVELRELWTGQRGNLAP
UniProt P15289: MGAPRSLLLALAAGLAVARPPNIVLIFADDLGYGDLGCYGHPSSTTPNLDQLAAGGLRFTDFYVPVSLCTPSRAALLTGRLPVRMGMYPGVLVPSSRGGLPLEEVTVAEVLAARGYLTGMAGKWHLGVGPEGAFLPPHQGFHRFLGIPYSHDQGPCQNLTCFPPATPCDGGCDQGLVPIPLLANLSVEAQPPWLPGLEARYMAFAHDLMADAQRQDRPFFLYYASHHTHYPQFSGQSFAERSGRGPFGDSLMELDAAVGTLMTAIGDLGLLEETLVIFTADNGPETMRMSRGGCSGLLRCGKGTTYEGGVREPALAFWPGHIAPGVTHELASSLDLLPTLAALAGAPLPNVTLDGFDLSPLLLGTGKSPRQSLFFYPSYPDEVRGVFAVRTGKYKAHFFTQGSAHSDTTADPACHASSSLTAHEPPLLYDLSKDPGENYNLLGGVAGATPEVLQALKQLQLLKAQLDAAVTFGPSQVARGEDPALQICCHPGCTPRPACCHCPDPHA
UniProt Q8IWW6: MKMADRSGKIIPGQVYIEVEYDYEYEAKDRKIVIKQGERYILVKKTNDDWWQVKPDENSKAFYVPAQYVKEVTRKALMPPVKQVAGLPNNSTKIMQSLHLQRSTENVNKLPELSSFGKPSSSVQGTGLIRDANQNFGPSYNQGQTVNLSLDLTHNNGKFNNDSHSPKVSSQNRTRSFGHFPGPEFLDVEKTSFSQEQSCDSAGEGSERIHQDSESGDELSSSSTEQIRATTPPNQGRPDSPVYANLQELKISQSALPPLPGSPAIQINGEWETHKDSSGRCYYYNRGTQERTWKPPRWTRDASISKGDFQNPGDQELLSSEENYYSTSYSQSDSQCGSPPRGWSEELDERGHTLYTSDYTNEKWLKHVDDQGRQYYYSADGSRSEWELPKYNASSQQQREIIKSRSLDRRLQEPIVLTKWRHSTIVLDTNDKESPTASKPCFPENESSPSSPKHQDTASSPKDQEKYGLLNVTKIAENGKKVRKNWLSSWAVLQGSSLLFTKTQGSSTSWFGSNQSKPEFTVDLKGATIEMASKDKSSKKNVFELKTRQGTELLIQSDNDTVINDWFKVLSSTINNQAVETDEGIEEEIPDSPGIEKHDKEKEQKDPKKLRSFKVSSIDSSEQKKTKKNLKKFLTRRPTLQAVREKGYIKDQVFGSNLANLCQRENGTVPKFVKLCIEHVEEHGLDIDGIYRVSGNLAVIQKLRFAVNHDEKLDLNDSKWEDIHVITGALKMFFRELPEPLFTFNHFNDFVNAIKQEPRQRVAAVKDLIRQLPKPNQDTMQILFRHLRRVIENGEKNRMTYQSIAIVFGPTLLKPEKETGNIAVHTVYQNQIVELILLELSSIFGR
UniProt P36404: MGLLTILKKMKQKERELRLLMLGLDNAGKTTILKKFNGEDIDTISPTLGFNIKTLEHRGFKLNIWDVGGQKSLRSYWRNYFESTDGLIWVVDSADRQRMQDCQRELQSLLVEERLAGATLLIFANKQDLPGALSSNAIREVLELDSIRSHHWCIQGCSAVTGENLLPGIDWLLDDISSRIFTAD

Legend:
Experiment in all cases: log2 fold change, soluble protein after heating vs DMSO (PISA); higher = thermal stabilisation; K562 lysate, 10 uM; active = over 0.2 and 3.5 SD of the protein, either way, in both replicates (recomputed)
vemurafenib = compound: CCCS(=O)(=O)Nc1ccc(F)c(C(=O)c2c[nH]c3ncc(-c4ccc(Cl)cc4)cc23)c1F [vemurafenib]
Summary of the method: (§1)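 K562 pellets were dounce-homogenised in PBS pH 7.4 containing 1 mM MgCl2, and the crude extract, at 1 mg/mL protein, was exposed to 10 μM compound for 30 min. Aliquots were heated for 3 min across 48°C-58°C, pooled, brought to 0.5% NP-40 at 4°C and spun at 21,000xg for 90 min, with the supernatant taken as soluble protein. TMTpro 16plex LC-MS/MS with equalised channel sums quantified that protein. Values are log-two fold changes in thermal stability relative to solvent controls, taken from duplicates.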

[1] = compound: CCCS(=O)(=O)Nc1ccc(F)c(C(=O)c2c[nH]c3ncc(Cl)cc23)c1F
Summary of the method: as §1

barasertib = compound: CCN(CCCOc1ccc2c(Nc3cc(CC(=O)Nc4cccc(F)c4)[nH]n3)ncnc2c1)CCOP(=O)(O)O [barasertib]
Summary of the method: as §1

[2] = compound: CC[C@@H]1C(=O)N(C)c2cnc(Nc3ccc(C(=O)NC4CCN(C)CC4)cc3OC)nc2N1C1CCCC1
Summary of the method: as §1

volasertib = compound: CC[C@@H]1C(=O)N(C)c2cnc(Nc3ccc(C(=O)N[C@H]4CC[C@H](N5CCN(CC6CC6)CC5)CC4)cc3OC)nc2N1C(C)C [volasertib]
Summary of the method: as §1

[3] = compound: CCn1c(C(=O)N(C2CC2)C2CC2)cc2c3c(ncn3C)c(Nc3cc(C)n(C)n3)nc21
Summary of the method: as §1

[4] = compound: CCn1cc(-c2ccnc3[nH]c(-c4cccc(CN(C)C)c4)cc23)c(-c2ccc(NC(=O)N(C)C)cc2)n1
Summary of the method: as §1

[5] = compound: CN1CCC(CNc2ccc3ncc(-c4cccc(OC(F)(F)F)c4)n3n2)CC1
Summary of the method: as §1

saracatinib = compound: CN1CCN(CCOc2cc(OC3CCOCC3)c3c(Nc4c(Cl)ccc5c4OCO5)ncnc3c2)CC1 [saracatinib]
Summary of the method: as §1

sotrastaurin = compound: CN1CCN(c2nc(C3=C(c4c[nH]c5ccccc45)C(=O)NC3=O)c3ccccc3n2)CC1 [sotrastaurin]
Summary of the method: as §1

alvocidib = compound: CN1CC[C@H](c2c(O)cc(O)c3c(=O)cc(-c4ccccc4Cl)oc23)[C@H](O)C1 [alvocidib]
Summary of the method: as §1

Tubastatin A = compound: CN1CCc2c(c3ccccc3n2Cc2ccc(C(=O)NO)cc2)C1 [Tubastatin A]
Summary of the method: as §1

[6] = compound: CNC(=O)C1=CC=CC=C1NC2=NC(=NC=C2Cl)NC3=C(C=C(C=C3)N4CCOCC4)OC
Summary of the method: as §1

defactinib = compound: CNC(=O)c1ccc(Nc2ncc(C(F)(F)F)c(NCc3nccnc3N(C)S(C)(=O)=O)n2)cc1 [defactinib]
Summary of the method: as §1

[7] = compound: CNc1nc(-c2ccc3c(N)n[nH]c3c2)cc(N2C[C@@H](C(=O)NC3CCCCC3)CC[C@H]2C)n1
Summary of the method: as §1

encorafenib = compound: COC(=O)N[C@@H](C)CNc1nccc(-c2cn(C(C)C)nc2-c2cc(Cl)cc(NS(C)(=O)=O)c2F)n1 [encorafenib]
Summary of the method: as §1

[8] = compound: COC(=O)[C@H](CCSC)NC(=O)C1=C(C=C(C=C1)NC[C@H](CS)N)C2=CC=CC=C2
Summary of the method: as §1

alisertib = compound: COc1cc(Nc2ncc3c(n2)-c2ccc(Cl)cc2C(c2c(F)cccc2OC)=NC3)ccc1C(=O)O [alisertib]
Summary of the method: as §1

[9] = compound: COc1cc2nc(-c3cc(F)ccc3O)nc(N[C@@H]3CNC[C@H]3C(C)(C)O)c2cc1OC
Summary of the method: as §1

gefitinib = compound: COc1cc2ncnc(Nc3ccc(F)c(Cl)c3)c2cc1OCCCN1CCOCC1 [gefitinib]
Summary of the method: as §1

Measured: log2 fold change

APEX1 (UniProt P27695)
active: [4] 0.37
inactive: vemurafenib 0.019 | [1] 0.017 | barasertib -0.027 | [2] -0.03 | volasertib -0.004 | [3] 0.043 | [5] -0.07 | saracatinib -0.001 | sotrastaurin 0.009 | alvocidib 0.13 | Tubastatin A -0.07 | [6] 0.006 | defactinib 0.023 | [7] 0.038 | encorafenib -0.024 | [8] 0.076 | alisertib 0 | [9] -0.019 | gefitinib -0.064

APOBEC3G (UniProt Q9HC16)
inactive: vemurafenib 0.003 | [1] 0.016 | barasertib -0.036 | [2] 0.051 | volasertib -0.016 | [3] -0.027 | [4] -0.029 | [5] -0.005 | saracatinib -0.008 | sotrastaurin -0.009 | alvocidib 0.035 | Tubastatin A -0.017 | [6] 0.013 | defactinib 0.101 | [7] 0.062 | encorafenib 0.005 | [8] -0.044 | alisertib 0.121 | [9] 0.028 | gefitinib 0.088

ARRDC1 (UniProt Q8N5I2)
inactive: vemurafenib 0.007 | [1] -0.006 | barasertib -0.102 | [2] -0.004 | volasertib 0.052 | [3] 0.05 | [4] -0.116 | [5] -0.024 | saracatinib -0.045 | sotrastaurin 0.066 | alvocidib 0.011 | Tubastatin A 0.072 | [6] -0.056 | defactinib -0.035 | [7] -0.005 | encorafenib -0.01 | [8] -0.081 | alisertib -0.096 | [9] -0.033 | gefitinib -0.264

ARL8A (UniProt Q96BM9)
inactive: vemurafenib -0.029 | [1] -0.26 | barasertib -0.026 | [2] -0.001 | volasertib -0.037 | [3] -0.03 | [5] -0.199 | saracatinib 0.03 | sotrastaurin 0.022 | alvocidib 0.082 | Tubastatin A 0.043 | [6] 0.06 | defactinib 0.019 | [7] 0.204 | encorafenib -0.048 | [8] -0.03 | alisertib -0.186 | [9] 0.027 | gefitinib 0.013
active: [4] 0.558

ARCN1 (UniProt P48444)
inactive: vemurafenib -0.021 | [1] -0.006 | barasertib -0.03 | [2] -0.017 | volasertib -0.009 | [3] -0.005 | [4] -0.002 | [5] 0.001 | saracatinib -0.001 | sotrastaurin -0.02 | alvocidib -0.001 | Tubastatin A 0.038 | [6] -0.019 | defactinib -0.007 | [7] -0.02 | encorafenib -0.002 | [8] 0.013 | alisertib 0.018 | [9] -0.005 | gefitinib 0.003

ARHGAP18 (UniProt Q8N392)
inactive: vemurafenib -0.047 | [1] 0.002 | barasertib 0.038 | [2] -0.022 | volasertib 0.006 | [3] 0 | [4] -0.013 | [5] 0.002 | saracatinib 0.019 | sotrastaurin 0.024 | alvocidib -0.013 | Tubastatin A 0.008 | [6] 0.022 | defactinib -0.022 | [7] 0.053 | encorafenib 0.007 | [8] 0.093 | alisertib -0.005 | [9] 0 | gefitinib -0.019

ARHGDIA (UniProt P52565)
inactive: vemurafenib 0 | [1] -0.014 | barasertib -0.013 | [2] 0.046 | volasertib 0.023 | [3] -0.039 | [4] -0.194 | [5] 0.024 | saracatinib -0.012 | sotrastaurin -0.005 | alvocidib -0.027 | Tubastatin A 0.059 | [6] -0.038 | defactinib -0.006 | [7] 0.048 | encorafenib -0.01 | [8] -0.013 | alisertib 0.014 | [9] 0.013 | gefitinib -0.003

ARPC1B (UniProt O15143)
inactive: vemurafenib -0.042 | [1] 0.007 | barasertib 0 | [2] 0.045 | volasertib 0.025 | [3] -0.022 | [4] -0.003 | [5] -0.007 | saracatinib -0.057 | sotrastaurin 0.002 | alvocidib 0.02 | Tubastatin A 0.018 | [6] -0.014 | defactinib 0.002 | [7] -0.035 | encorafenib -0.002 | [8] -0.01 | alisertib -0.061 | [9] -0.012 | gefitinib -0.071

ARPC1A (UniProt Q92747)
inactive: vemurafenib 0.018 | [1] -0.011 | barasertib 0.015 | [2] 0.076 | volasertib 0.011 | [3] -0.007 | [4] -0.228 | [5] 0.12 | saracatinib 0.014 | sotrastaurin -0.031 | alvocidib -0.029 | Tubastatin A 0.016 | [6] 0.008 | defactinib 0.018 | [7] -0.01 | encorafenib -0.004 | [8] -0.066 | alisertib -0.013 | [9] 0.004 | gefitinib -0.067

APOBEC3D (UniProt Q96AK3)
inactive: vemurafenib 0.033 | [1] 0.084 | barasertib 0.019 | [2] -0.013 | volasertib -0.02 | [3] 0.04 | [4] -0.085 | [5] 0.033 | saracatinib -0.089 | sotrastaurin 0.028 | alvocidib -0.01 | Tubastatin A -0.041 | [6] -0.032 | defactinib 0.004 | [7] 0.026 | encorafenib 0.051 | [8] -0.078 | alisertib 0.002 | [9] -0.027 | gefitinib -0.023

Two consecutive entries out of the list so far, quoted:
ARPC1B (UniProt O15143)
inactive: vemurafenib -0.042 | [1] 0.007 | barasertib 0 | [2] 0.045 | volasertib 0.025 | [3] -0.022 | [4] -0.003 | [5] -0.007 | saracatinib -0.057 | sotrastaurin 0.002 | alvocidib 0.02 | Tubastatin A 0.018 | [6] -0.014 | defactinib 0.002 | [7] -0.035 | encorafenib -0.002 | [8] -0.01 | alisertib -0.061 | [9] -0.012 | gefitinib -0.071

ARPC1A (UniProt Q92747)
inactive: vemurafenib 0.018 | [1] -0.011 | barasertib 0.015 | [2] 0.076 | volasertib 0.011 | [3] -0.007 | [4] -0.228 | [5] 0.12 | saracatinib 0.014 | sotrastaurin -0.031 | alvocidib -0.029 | Tubastatin A 0.016 | [6] 0.008 | defactinib 0.018 | [7] -0.01 | encorafenib -0.004 | [8] -0.066 | alisertib -0.013 | [9] 0.004 | gefitinib -0.067

Next entries follow.

ASAP3 (UniProt Q8TDY4)
inactive: vemurafenib 0.1 | [1] 0.023 | barasertib 0.526 | [2] -0.009 | volasertib -0.041 | [3] -0.045 | [4] 0.082 | [5] 0.06 | saracatinib 0.03 | sotrastaurin 0.055 | alvocidib -0.083 | Tubastatin A -0.09 | [6] 0.076 | defactinib 0.011 | [7] -0.037 | encorafenib 0.038 | [8] 0.175 | alisertib -0.038 | [9] 0.018 | gefitinib 0.012

ARMC6 (UniProt Q6NXE6)
active: [8] 0.234
inactive: vemurafenib -0.053 | [1] 0.02 | barasertib 0.071 | [2] -0.136 | volasertib -0.056 | [3] 0.019 | [4] 0.002 | [5] -0.035 | saracatinib 0.013 | sotrastaurin 0.019 | alvocidib 0 | Tubastatin A -0.171 | [6] 0 | defactinib -0.003 | [7] -0.103 | encorafenib 0.037 | alisertib 0.005 | [9] -0.014 | gefitinib 0.041

ARSA (UniProt P15289)
inactive: vemurafenib 0.034 | [1] 0.009 | barasertib 0.149 | [2] 0.025 | volasertib 0.021 | [3] 0.021 | [4] 0.17 | [5] 0.027 | saracatinib -0.018 | sotrastaurin 0.025 | alvocidib 0 | Tubastatin A -0.174 | [6] -0.05 | defactinib 0.035 | [7] 0.058 | encorafenib 0.016 | [8] 0.135 | alisertib -0.148 | [9] 0.039 | gefitinib 0.102

ARHGAP12 (UniProt Q8IWW6)
inactive: vemurafenib 0.111 | [1] 0.049 | barasertib 0.018 | [2] 0.212 | volasertib -0.019 | [3] -0.172 | [4] -0.147 | [5] 0.119 | saracatinib 0.049 | sotrastaurin -0.013 | alvocidib -0.103 | Tubastatin A 0.103 | [6] 0 | defactinib -0.029 | [7] 0.167 | encorafenib -0.032 | [8] 0.009 | alisertib 0.02 | [9] 0.023 | gefitinib 0.009

ARL2 (UniProt P36404)
inactive: vemurafenib 0.037 | [1] -0.001 | barasertib 0.049 | [2] -0.084 | volasertib -0.018 | [3] -0.004 | [4] -0.033 | [5] 0 | saracatinib -0.001 | sotrastaurin 0.077 | alvocidib 0.037 | Tubastatin A -0.053 | [6] -0.033 | defactinib -0.051 | [7] 0.009 | encorafenib -0.059 | [8] 0.015 | alisertib 0.033 | [9] 0.012 | gefitinib -0.013
